Literature values, collected in patent US20050059605A1, “Chemically modified metabolites of regulatory peptides and methods of producing and using same” (priority 2003, published 2005).
Some results were stated once for a whole list of compounds, not compound by compound.

Settings: cited from earlier work

| Substance | half-lives in circulation |
| --- | --- |
| GLP-2: Glucagon like peptide-2, native regulatory peptide | 2 to 4 min |
| GHRH: Growth hormone releasing hormone, native regulatory peptide | 2 to 4 min |
